According to publication PMC8847397:

Biological target: T1, endogenous SENP1 (SUMO-specific protease 1) in Jurkat E6.1 T cells (human (endogenous in Jurkat E6.1)) (UniProt Q9P0U3)
T1 sequence: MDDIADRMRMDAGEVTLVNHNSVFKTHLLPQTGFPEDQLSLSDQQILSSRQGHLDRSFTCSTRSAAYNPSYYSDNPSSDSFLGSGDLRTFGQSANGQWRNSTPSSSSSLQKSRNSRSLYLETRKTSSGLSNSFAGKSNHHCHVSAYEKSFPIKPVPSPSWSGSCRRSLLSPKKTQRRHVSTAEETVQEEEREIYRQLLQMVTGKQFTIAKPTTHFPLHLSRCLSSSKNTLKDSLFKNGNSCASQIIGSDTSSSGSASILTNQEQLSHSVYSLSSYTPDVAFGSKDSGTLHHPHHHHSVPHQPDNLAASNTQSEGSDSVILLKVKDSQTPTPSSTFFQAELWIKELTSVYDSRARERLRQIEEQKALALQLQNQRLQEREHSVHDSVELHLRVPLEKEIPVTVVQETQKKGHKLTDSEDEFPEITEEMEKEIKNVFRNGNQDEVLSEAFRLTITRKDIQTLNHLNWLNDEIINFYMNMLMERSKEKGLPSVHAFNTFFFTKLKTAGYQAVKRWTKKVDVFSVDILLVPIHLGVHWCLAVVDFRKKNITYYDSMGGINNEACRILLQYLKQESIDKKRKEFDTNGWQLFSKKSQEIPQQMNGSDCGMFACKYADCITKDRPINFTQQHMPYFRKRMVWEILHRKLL
Assay: affinity purification with mass spectrometry; immunoprecipitation with SENP1 antibody from Jurkat E6.1 T cells, SDS-PAGE, gel bands excised, tryptic digestion, LC-MS/MS

endogenous Lck in Jurkat E6.1 T cells (from UniProt P06239-1 1-509) (enzyme)
binding: binds

These are yes or no findings as the source states them, for the method shown. Binding seen in cells or lysates may run through a third protein. These calls come from enrichment with a bait or labelling near it, and not all partners need be listed.
